Experiment [1] relates to T1, Kras G12D protein / SOS1 exchange domain.
T1 construct: Cytoskeleton, Inc. (SOS1 exchange domain only) GE02
Kind of experiment: Kras-SOS exchange assay (MANT-GDP). Format: biochemical. The note with it: for Relative fluorescence intensity: PhP072 500 uM, no irradiation; for normalized signal, Kras-SOS exchange (Figure 4c PhP072 irradiation): Php072 500 uM. The method, then:
MANT-GDP loading assay: Kras^G12D protein was first buffer exchanged into low magnesium buffer (20 mM HEPES-NaOH (pH 7.5), 50 mM NaCl, 0.5 mM MgCl2) using a NAP5 column (catalog no.: 17-0583-1, Cytiva). The proteins were then incubated with 20-fold molar excess of N-methylanthraniloyl (MANT)-GDP (catalog no.: 69244, Sigma-Aldrich) in loading buffer (50 mM NaCl, 20 mM HEPES-NaOH [pH 7.5], 0.5 mM MgCl2, 10 mM EDTA, and 1 mM Dithiothreitol (DTT)) in a total volume of 200 μL at 20 °C for 90 min. The reaction was stopped by adding MgCl2 to a final concentration of 10 mM, then incubated at 20 °C for 30 min. The unbound MANT-GDP was removed using the NAP-5 column equilibrated with nucleotide exchange buffer (40 mM HEPES-NaOH (pH 7.5), 50 mM NaCl, 10 mM MgCl2, 2 mM DTT).
MANT-GDP exchange assay: First the MANT-GDP bound Kras G12D protein (in a final 1 μM molar concentration) was preincubated with the inhibitor molecules for 60 min. After the preincubation the samples were exposed to UV light for 10 min with a wavelength of 366 nm. The UV-treated MANT-GDP Kras-inhibitor mix was loaded into a black 384 well microplate. The nucleotide exchange reaction was initiated by adding 100 fold molar excess of GppNHp (catalog no.: G0635, Sigma-Aldrich), a non-hydrolyzable GTP analog and the SOS1 exchange domain (catalog no.: GE02, Cytoskeleton, Inc.) protein in 0.5 μM final concentration. The change in fluorescence intensity was measured every 30 s in room temperature for 60 min on an EnSpire plate reader (PerkinElmer, Inc.). The measured fluorescence values were fitted to a single exponential function by using GraphPad Prism 8 software.

A further experiment has as its target T2, STAT5B NTD (Homo sapiens, UniProt P51692).
T2 construct: His-SUMO (N, cleaved yes); made in house; host or cells: E. coli BL21 RILP
T2 sequence (P51692 1-123): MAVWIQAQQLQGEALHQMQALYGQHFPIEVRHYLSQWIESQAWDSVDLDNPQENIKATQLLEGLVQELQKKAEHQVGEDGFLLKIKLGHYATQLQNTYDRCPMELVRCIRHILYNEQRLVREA
Description: Microscale thermophoresis (MST), without irradiation. Format: binding. The note with it: for Fnorm: MST raw data, PhP097 concentration [log. The method, then: For the microscale thermophoresis (MST) studies, we prepared 16 two-fold serial dilutions of compounds starting from 500 μM. Titration series were prepared that contained 10 μL of compounds’ solutions of varying concentrations and 10 μL RED-NHS 2nd Generation labeled STAT5B NTD with a concentration of 168 nM for compound PhP097, and a concentration of 84 nM for compound PhP065. Final buffer composition included 1X PBS containing 0.5% DMSO. All measurements were taken in Premium Coated Capillaries on a Monolith NT.115 instrument (NanoTemper Technologies, Munich, Germany) using 80% infrared laser power for compound PhP097, 60% infrared laser power for compound PhP065, and an LED excitation source with λ = 650 nm at a temperature of 25 °C. Results were expressed as the mean of two separate experiments, with three technical replicates each. GraphPad Prism 9.5.1 software was used to fit the data and to determine the KD values.

2 molecules from paper PMC11292009, “Mapping protein binding sites by photoreactive fragment pharmacophores” (Communications Chemistry, 2024) can be followed below.

“And” between values parts separate entries of the source, which are not always exact repeats. Identical values can stand only once. The source gives many values for each of these; only a part stands here.

On to `Cc1ncc(CO)c(CNC(=O)CCC2(C)N=N2)c1O` [PhP072, Cc1ncc(CO)c(c1O)CNC(=O)CCC2(C)N=N2], for which the Relative fluorescence intensity is 0.9388 in experiment [1] (150 sec); 0.9631 in experiment [1] (180 sec); 0.691 in experiment [1] (2610 sec); 0.7138 in experiment [1] (2640 sec); 0.7054 in experiment [1] (2670 sec); 0.71 in experiment [1] (2700 sec). Moreover, the Relative fluorescence intensity in experiment [1] (2730 sec) worked out at 0.6899; in experiment [1] (2760 sec), 0.6818; in experiment [1] (2790 sec) it was 0.6957; in experiment [1] (2820 sec), 0.6756; in experiment [1] (2850 sec), 0.7031; in experiment [1] (2880 sec), 0.6673. In addition, the “normalized signal, Kras-SOS exchange (Figure 4c PhP072 irradiation)” value was 0.9882 in experiment [1] (time 150 sec); 0.9892 in experiment [1] (time 180 sec); 0.9202 in experiment [1] (time 2610 sec); 0.9444 in experiment [1] (time 2640 sec); 0.9395 in experiment [1] (time 2670 sec); 0.935 in experiment [1] (time 2700 sec). Also, the “normalized signal, Kras-SOS exchange (Figure 4c PhP072 irradiation)” value is recorded as 0.9162 in experiment [1] (time 2730 sec); 0.9142 in experiment [1] (time 2760 sec); 0.921 in experiment [1] (time 2790 sec); 0.916 in experiment [1] (time 2820 sec); 0.9204 in experiment [1] (time 2850 sec); 0.8998 in experiment [1] (time 2880 sec).

Turning to `CC1(CCC(=O)NCCc2csc(-c3ccccc3)n2)N=N1` [PhP097, N1=NC1(C)CCC(=O)NCCc2csc(n2)-c3ccccc3], the ΔFnorm at STAT5B NTD (Fnorm - Unbound value, Php097 concentration [log, µM] -1.5157, runs/replicates) was -0.1751 ‰ and 5.414 ‰. In addition, the Fnorm was 710.349 ‰ and 709.9 ‰ and 712.145 ‰ and 706.832 ‰ and 707.716 ‰ and 708.776 ‰ at STAT5B NTD (µM] 1.19382, runs/replicates); 709.995 ‰ and 707.215 ‰ and 707.437 ‰ and 704.024 ‰ and 708.603 ‰ and 706.942 ‰ at STAT5B NTD (µM] 1.49485, runs/replicates); 705.853 ‰ and 705.387 ‰ and 706.853 ‰ and 700.507 ‰ and 704.962 ‰ and 701.944 ‰ on STAT5B NTD (µM] 1.79588, runs/replicates); 699.67 ‰ and 700.13 ‰ and 702.445 ‰ and 701.209 ‰ and 707.631 ‰ and 701.304 ‰ on STAT5B NTD (µM] 2.09691, runs/replicates); 712.652 ‰ and 711.955 ‰ and 714.108 ‰ and 701.531 ‰ and 700.302 ‰ and 701.524 ‰ on STAT5B NTD (µM] 2.39794, runs/replicates).
